Measurements from the supplement of paper PMC8728848.
Some of the results follow.

Legend:
Test in all cases: glycan array binding signal (z-score within array); higher = stronger binding
Conditions in all cases: glycan notation: IUPAC condensed, linker removed
[1] = target: Gal(b1-4)GlcNAc(b1-3)Gal(b1-4)GlcNAc(b1-2)Man(a1-3)[Gal(b1-4)GlcNAc(b1-3)Gal(b1-4)GlcNAc(b1-2)Man(a1-6)]Man(b1-4)GlcNAc(b1-4)[Fuc(a1-6)]GlcNAc
In short: (§1)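 The binding signal is a Z-score computed within each array and averaged over linkers. Arrays of the same protein sequence at different concentrations or buffers were also averaged together. Data originate from 3228 arrays in the Consortium for Functional Glycomics database, kept only where the protein sequence was available.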

[2] = target: Gal(b1-4)GlcNAc(b1-3)Gal(b1-4)GlcNAc(b1-2)[Gal(b1-4)GlcNAc(b1-3)Gal(b1-4)GlcNAc(b1-6)]Man(a1-6)[Gal(b1-4)GlcNAc(b1-3)Gal(b1-4)GlcNAc(b1-2)Man(a1-3)]Man(b1-4)GlcNAc(b1-4)GlcNAc
In short: as §1

[3] = target: Gal(b1-4)GlcNAc(b1-3)Gal(b1-4)GlcNAc(b1-2)[Gal(b1-4)GlcNAc(b1-3)Gal(b1-4)GlcNAc(b1-6)]Man(a1-6)[Gal(b1-4)GlcNAc(b1-3)Gal(b1-4)GlcNAc(b1-2)Man(a1-3)]Man(b1-4)GlcNAc(b1-4)[Fuc(a1-6)]GlcNAc
In short: as §1

[4] = target: Gal(b1-4)GlcNAc(b1-3)Gal(b1-4)GlcNAc(b1-3)Gal(b1-4)GlcNAc
In short: as §1

[5] = target: Gal(b1-4)GlcNAc(b1-3)Gal(b1-4)GlcNAc(b1-3)Gal(b1-4)GlcNAc(b1-2)Man(a1-3)[Gal(b1-4)GlcNAc(b1-3)Gal(b1-4)GlcNAc(b1-3)Gal(b1-4)GlcNAc(b1-2)Man(a1-6)]Man(b1-4)GlcNAc(b1-4)GlcNAc
In short: as §1

[6] = target: Gal(b1-4)GlcNAc(b1-3)Gal(b1-4)GlcNAc(b1-3)Gal(b1-4)GlcNAc(b1-2)Man(a1-3)[Gal(b1-4)GlcNAc(b1-3)Gal(b1-4)GlcNAc(b1-3)Gal(b1-4)GlcNAc(b1-2)Man(a1-6)]Man(b1-4)GlcNAc(b1-4)[Fuc(a1-6)]GlcNAc
In short: as §1

[7] = target: Gal(b1-4)GlcNAc(b1-3)Gal(b1-4)GlcNAc(b1-3)Gal(b1-4)GlcNAc(b1-2)[Gal(b1-4)GlcNAc(b1-3)Gal(b1-4)GlcNAc(b1-3)Gal(b1-4)GlcNAc(b1-6)]Man(a1-6)[Gal(b1-4)GlcNAc(b1-3)Gal(b1-4)GlcNAc(b1-3)Gal(b1-4)GlcNAc(b1-2)Man(a1-3)]Man(b1-4)GlcNAc(b1-4)[Fuc(a1-6)]GlcNAc
In short: as §1

[8] = target: Gal(b1-4)GlcNAc(b1-3)Gal(b1-4)GlcNAc(b1-3)Gal(b1-4)GlcNAc(b1-3)Gal(b1-4)GlcNAc(b1-2)Man(a1-3)[Gal(b1-4)GlcNAc(b1-3)Gal(b1-4)GlcNAc(b1-3)Gal(b1-4)GlcNAc(b1-3)Gal(b1-4)GlcNAc(b1-2)Man(a1-6)]Man(b1-4)GlcNAc(b1-4)GlcNAc
In short: as §1

[9] = target: Gal(b1-4)GlcNAc(b1-3)Gal(b1-4)GlcNAc(b1-3)Gal(b1-4)GlcNAc(b1-3)Gal(b1-4)GlcNAc(b1-2)Man(a1-3)[Gal(b1-4)GlcNAc(b1-3)Gal(b1-4)GlcNAc(b1-3)Gal(b1-4)GlcNAc(b1-3)Gal(b1-4)GlcNAc(b1-2)Man(a1-6)]Man(b1-4)GlcNAc(b1-4)[Fuc(a1-6)]GlcNAc
In short: as §1

[10] = target: Gal(b1-4)GlcNAc(b1-3)Gal(b1-4)GlcNAc(b1-3)Gal(b1-4)GlcNAc(b1-3)Gal(b1-4)GlcNAc(b1-2)[Gal(b1-4)GlcNAc(b1-3)Gal(b1-4)GlcNAc(b1-3)Gal(b1-4)GlcNAc(b1-3)Gal(b1-4)GlcNAc(b1-6)]Man(a1-6)[Gal(b1-4)GlcNAc(b1-3)Gal(b1-4)GlcNAc(b1-3)Gal(b1-4)GlcNAc(b1-3)Gal(b1-4)GlcNAc(b1-2)Man(a1-3)]Man(b1-4)GlcNAc(b1-4)[Fuc(a1-6)]GlcNAc
In short: as §1

[11] = target: Gal(b1-4)GlcNAc(b1-3)Gal(b1-4)GlcNAc(b1-3)Gal(b1-4)GlcNAc(b1-3)Gal(b1-4)GlcNAc(b1-3)Gal(b1-4)GlcNAc(b1-2)Man(a1-3)[Gal(b1-4)GlcNAc(b1-3)Gal(b1-4)GlcNAc(b1-3)Gal(b1-4)GlcNAc(b1-3)Gal(b1-4)GlcNAc(b1-3)Gal(b1-4)GlcNAc(b1-2)Man(a1-6)]Man(b1-4)GlcNAc(b1-4)GlcNAc
In short: as §1

[12] = target: Gal(b1-4)GlcNAc(b1-3)Gal(b1-4)GlcNAc(b1-3)Gal(b1-4)GlcNAc(b1-3)Gal(b1-4)GlcNAc(b1-3)Gal(b1-4)GlcNAc(b1-2)Man(a1-3)[Gal(b1-4)GlcNAc(b1-3)Gal(b1-4)GlcNAc(b1-3)Gal(b1-4)GlcNAc(b1-3)Gal(b1-4)GlcNAc(b1-3)Gal(b1-4)GlcNAc(b1-2)Man(a1-6)]Man(b1-4)GlcNAc(b1-4)[Fuc(a1-6)]GlcNAc
In short: as §1

[13] = target: Gal(b1-4)GlcNAc(b1-3)Gal(b1-4)GlcNAc(b1-3)Gal(b1-4)GlcNAc(b1-3)Gal(b1-4)GlcNAc(b1-3)Gal(b1-4)GlcNAc(b1-2)[Gal(b1-4)GlcNAc(b1-3)Gal(b1-4)GlcNAc(b1-3)Gal(b1-4)GlcNAc(b1-3)Gal(b1-4)GlcNAc(b1-3)Gal(b1-4)GlcNAc(b1-6)]Man(a1-6)[Gal(b1-4)GlcNAc(b1-3)Gal(b1-4)GlcNAc(b1-3)Gal(b1-4)GlcNAc(b1-3)Gal(b1-4)GlcNAc(b1-3)Gal(b1-4)GlcNAc(b1-2)Man(a1-3)]Man(b1-4)GlcNAc(b1-4)[Fuc(a1-6)]GlcNAc
In short: as §1

[14] = target: Gal(b1-4)GlcNAc(b1-3)Gal(b1-4)GlcNAc(b1-3)Gal(b1-4)GlcNAc(b1-3)Gal(b1-4)GlcNAc(b1-3)Gal(b1-4)GlcNAc(b1-3)Gal(b1-4)GlcNAc(b1-2)Man(a1-3)[Gal(b1-4)GlcNAc(b1-3)Gal(b1-4)GlcNAc(b1-3)Gal(b1-4)GlcNAc(b1-3)Gal(b1-4)GlcNAc(b1-3)Gal(b1-4)GlcNAc(b1-3)Gal(b1-4)GlcNAc(b1-2)Man(a1-6)]Man(b1-4)GlcNAc(b1-4)GlcNAc
In short: as §1

[15] = target: Gal(b1-4)GlcNAc(b1-3)Gal(b1-4)GlcNAc(b1-3)GalNAc
In short: as §1

[16] = target: Gal(b1-4)GlcNAc(b1-3)Gal(b1-4)GlcNAc(b1-3)[Gal(b1-4)GlcNAc(b1-3)Gal(b1-4)GlcNAc(b1-6)]GalNAc
In short: as §1

[17] = target: Gal(b1-4)GlcNAc(b1-3)Gal(b1-4)GlcNAc(b1-6)[Gal(b1-3)]GalNAc
In short: as §1

[18] = target: Gal(b1-4)GlcNAc(b1-3)Gal(b1-4)[Fuc(a1-3)GlcNAc(b1-6)]Gal(b1-4)Glc
In short: as §1

[19] = target: Gal(b1-4)GlcNAc(b1-3)Gal(b1-4)[Fuc(a1-3)]GlcNAc(b1-3)Gal(b1-4)[Fuc(a1-3)]GlcNAc
In short: as §1

B1: GST-Gap1 (Streptococcus parasanguinis), A1C3L5 (protein)
chain: MFYFVPSWYNGQRQWYYDTPWWFRVKNRMTFDDSVNQVKMFLQGQEEIGLMILNYQPQLRYFLHKQNIFGIYYWSFFDDIQNITRSYTKIIHLKDLNWPEGCEFLYSPFAVVVRLKGEIFAIVNYAEDGNLHSVSFQKNGKVTKDYIFDDRGFLSSILYYDIDERPLYQDYLNINGVWQVREFLKKENDPTPILMINDFSDQTFSKKYYNGWEELIKERLAIFQNNHVENEDVFVLASDTQHNQLVSSIFKEHRKIYSFFGNRFNLENLGQDRISINDATFLVVDTEKNEELLRKTCENLVFKSIPIVRLSPFDSRLRLGHSQTVKEQIIYFHIDNIELDELYSVIAIILELMTLHLDIELRIVTFRQDFQLDLLKTWIIDFIKTNHFEDLLFKQISEGENEIEDEGEIELSRIAMECFTNENQIIKCLDTARLVIDLGIEPDLYTQIASISAGIPQINRVSSDYVIHQKNGLVISDISKLSSAIEFYFDGLFNWNEALIYAVRKMSDYTSGKILKQWKGMLKKK
[1]
  glycan array binding signal (z-score): 1.2
[2]
  glycan array binding signal (z-score): 0.661
[3]
  glycan array binding signal (z-score): 2.87
[4]
  glycan array binding signal (z-score): -0.603
[5]
  glycan array binding signal (z-score): 0.63
[6]
  glycan array binding signal (z-score): 1.03
[7]
  glycan array binding signal (z-score): 0.505
[8]
  glycan array binding signal (z-score): 0.621
[9]
  glycan array binding signal (z-score): 0.765
[10]
  glycan array binding signal (z-score): 0.652
[11]
  glycan array binding signal (z-score): -1.02
[12]
  glycan array binding signal (z-score): -1.32
[13]
  glycan array binding signal (z-score): 2.13
[14]
  glycan array binding signal (z-score): 0.374
[15]
  glycan array binding signal (z-score): 2.15
[16]
  glycan array binding signal (z-score): 1.57
[17]
  glycan array binding signal (z-score): -0.062
[18]
  glycan array binding signal (z-score): -0.519
[19]
  glycan array binding signal (z-score): -0.095
